# In PubChem BioAssay AID504834 (National Center for Advancing Translational Sciences (NCATS), 2011):
# The whole screen tested about 320,000 compounds, of which about 22,000 (6.9%) were called active. This list was built around the results that the source calls inconclusive (neither active nor inactive); the mix of calls is not that of the screen. Calls follow the shape of the dose curve; as a rule, active = well fitted inhibition curve with a large enough effect; inconclusive = small, poorly fitted or top-dose-only effect, or another doubt; inactive = no such curve, though single readings can be large or run the other way. A potency beside an inconclusive call is a rough fit, not a confirmed value.
# Experiment: Primary qHTS for delayed death inhibitors of the malarial parasite plastid, 96 hour incubation
# Settings: P. falciparum luciferase reporter growth; series mostly up to 28.7 µM
# In short: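 Delayed-death screen, second-generation endpoint: infected erythrocytes, 2% hematocrit, 0.05% parasitemia final; 96 hours at 37 C, 5% CO2; luciferase detection reagent; luminescence decrease equals reduced growth.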
# Potency is read from the fitted curve at half-maximal effect.
row,SMILES,Potency
1,CCC(=O)N(Cc1c(C)nn(-c2ccccc2)c1Cl)c1ccc(Cl)cc1,inactive
2,CC(Oc1ccccc1)C(=O)N=C1SC2CS(=O)(=O)CC2N1c1ccccc1 (stereo not given),inactive
3,CNc1ccc(/C=C(\CCC(=O)O)c2nc3ccccc3s2)cc1[N+](=O)[O-],"inconclusive: 18.5 µM [inhibitor, single point]"
4,CCCC(O)(CCC)C(=O)NNc1ccccc1,"inconclusive: 0.165 µM [inhibitor, full curve, poor fit]"
5,CC(C)Cc1ccccc1O,inactive
6,COc1ccc(C(=O)NC(NC(=S)Nc2ccc(S(N)(=O)=O)cc2)C(Cl)(Cl)Cl)cc1 (stereo not given),"inconclusive: 0.0928 µM [inhibitor, full curve, poor fit]"
7,COC(=O)c1ccc(CN2CCC(CO)(Cc3cccc(OC)c3)CC2)cc1,"inconclusive: 10.4 µM [inhibitor, single point]"
8,COC(=O)CSc1nc2ccccc2c(=O)n1Cc1ccccc1,"inconclusive: 13.1 µM [inhibitor, single point]"
9,COC(=O)C1CCN(C(=O)CSc2ccccc2)CC1,"inconclusive: 11.7 µM [inhibitor, single point]"
10,CC(=O)Nc1c(C(=O)C2CC2)oc2ccccc12,"inconclusive: 4.15 µM [inhibitor, single point]"
11,Nc1nc(-c2ccc(Br)cc2)c(S(=O)(=O)c2ccccc2)s1,inactive
12,O=C(CN(Cc1ccc(Br)cc1)S(=O)(=O)c1ccccc1)NCc1ccncc1,inactive
13,CC(C)CN(CCCNC(=O)CN1C(=O)COc2ccc(S(=O)(=O)N3CCCCCC3)cc21)CC(C)C,"inconclusive: 9.28 µM [inhibitor, partial curve]"
14,O=C1CC(=O)Nc2cc(S(=O)(=O)N3CCOc4ccccc43)ccc2N1,"inconclusive: 18.5 µM [inhibitor, single point]"
15,Cc1ccc(NS(=O)(=O)c2ccc(C(=O)N3CCCCCC3)cc2)cc1,"inconclusive: 9.28 µM [inhibitor, partial curve, poor fit]"
16,CCOC(=O)c1sc2nc(C)cc(-c3ccccc3)c2c1N,"inconclusive: 10.4 µM [inhibitor, single point]"
17,COCCn1nnnc1C(c1ccc(C(F)(F)F)cc1)N1CCOCC1 (stereo not given),inactive
18,COc1ccc(OC)c(S(=O)(=O)N2CCN(C(=O)c3cc(C4CC4)nn3-c3ccccc3)CC2)c1,active: 9.28 µM
19,CCOC(=O)C1=C(C)Nc2nc(C)nn2C1c1cc(OC)ccc1OC (stereo not given),active: 8.28 µM
20,O=C(Nc1ccc(-c2nc3ccccc3[nH]2)cc1)c1c(F)c(F)c(F)c(F)c1F,"inconclusive: 5.86 µM [inhibitor, partial curve, poor fit]"
21,N#Cc1c(NCCCO)nc(NCc2ccccc2)c2c1CCN(Cc1ccccc1)C2,active: 10.4 µM
22,OCCCNc1ncnc2c1[nH]c1ccccc12,inactive
23,CCC(C(=O)NC1CCCC1)N(C(=O)Cn1nnc(-c2ccc(C)o2)n1)c1cccc(OC)c1 (stereo not given),"inconclusive: 7.38 µM [inhibitor, partial curve, poor fit]"
24,Cc1ccc(O)c(-c2cc(C(F)(F)F)[nH]n2)c1,active: 14.7 µM

row,SMILES,Potency
1,COc1ccccc1C1CC(c2ccc(NS(C)(=O)=O)cc2)=NN1S(=O)(=O)c1ccccc1 (stereo not given),"inconclusive: 10.4 µM [inhibitor, single point]"
2,CCOc1ccc(N(CC(=O)NCCc2ccc(F)cc2)S(=O)(=O)c2ccccc2)cc1,"inconclusive: 11.7 µM [inhibitor, single point]"
3,Cc1oc(-c2cccc(Cl)c2)[n+]([O-])c1C,active: 5.22 µM
4,Cc1ccc(C)c(N=Nc2nc3ccccc3n2C)c1,active: 0.465 µM
5,O=C(CSc1nnc(CNC(=O)c2ccccc2F)o1)Nc1ccc2c(c1)OCO2,"inconclusive: 16.5 µM [inhibitor, single point]"
6,C=CCN(c1ccccc1)S(=O)(=O)c1cccc(C(=O)NCC(c2ccc(OC)cc2)N2CCCCC2)c1 (stereo not given),"inconclusive: 5.86 µM [inhibitor, partial curve]"
7,CC(/C=C1\SC(=S)N(c2ccc(C(=O)O)cc2)C1=O)=C\c1ccccc1,"inconclusive: 4.65 µM [inhibitor, partial curve]"
8,O=C(OCC(=O)C12CC3CC(CC(C3)C1)C2)c1ccc(CO)cc1,"inconclusive: 13.1 µM [inhibitor, single point]"
9,O=C(Nc1cccnc1)c1cc(-c2ccc(Br)cc2)nc2ccccc12,inactive
10,CC(=O)Nc1ccc(NC(=O)COC(=O)c2cnccn2)cc1,inactive
11,CC(C)CNS(=O)(=O)c1ccc(CCC(=O)Nc2ccc3c(c2)OCCO3)cc1,inactive
12,NC(=S)N/N=C1\CCSc2ccc(Cl)cc21,"inconclusive: 13.1 µM [inhibitor, partial curve, poor fit]"
13,O=C(Nc1ccc(C(=O)NCC2CCN(Cc3ccccc3F)CC2)cc1)C1=CSCCO1,"inconclusive: 2.33 µM [inhibitor, full curve]"
14,Cc1nnsc1C(=O)N/N=C/c1ccccc1,"inconclusive: 13.1 µM [inhibitor, single point]"
15,COc1ccc(/C=N/N2C(=O)CSC2=S)cc1,"inconclusive: 0.415 µM [inhibitor, partial curve, poor fit]"
16,CN(Cc1cnn(C)c1)Cc1nc(COc2ccccc2)no1,inactive
17,CN(C)S(=O)(=O)c1ccc(N2CCCC2)c(C(=O)N2CCN(c3ccc([N+](=O)[O-])cc3)CC2)c1,"inconclusive: 4.65 µM [inhibitor, partial curve]"
18,CC1=CC(C)(C)N2C(=O)C(=Nc3ccc(O)cc3)c3cccc1c32,"inconclusive: 14.7 µM [inhibitor, partial curve, poor fit]"
19,CCC(=O)Nc1ccc(N2CCOCC2)c(S(=O)(=O)Nc2ccc(Cl)cc2)c1,"inconclusive: 18.5 µM [inhibitor, single point]"
20,Cc1noc(C)c1CC(=O)N1CCCC(C(=O)c2ccc(C(C)(C)C)cc2)C1 (stereo not given),"inconclusive: 0.465 µM [inhibitor, partial curve, poor fit]"
21,O=C(N=C1SC2CS(=O)(=O)CC2N1c1ccc(F)cc1)C1CC1 (stereo not given),inactive
22,CC(C)(C)CC(C)(C)c1ccc(O)cc1,"inconclusive: 4.78 µM [inhibitor, partial curve]"
23,Cc1ccc(C(=O)COC(=O)CN2C(=O)C3C4C=CC(C4)C3C2=O)cc1C (stereo not given),inactive
24,O=C(NC(=S)N1C[C@H]2C[C@H](C1)c1cccc(=O)n1C2)c1ccc(Cl)cc1Cl,"inconclusive: 18.5 µM [inhibitor, single point]"

row,SMILES,Potency
1,CCC1CN(C(=O)NCc2ccccc2)c2ccccc2O1 (stereo not given),"inconclusive: 10.4 µM [inhibitor, partial curve]"
2,COc1ccc2ccc(OC)c(/C=N/n3cnnc3)c2c1,inactive
3,O=S(=O)(c1ccccc1Cl)N1CCC(Cc2ccccc2)CC1,"inconclusive: 18.5 µM [inhibitor, partial curve, poor fit]"
4,COc1ccccc1Nc1nnc(SCC(=O)N2CC(=O)Nc3ccccc32)s1,active: 7.38 µM
5,S=c1[nH]ccn1-c1ccc(Cl)cc1,"inconclusive: 0.0037 µM [inhibitor, full curve, poor fit]"
6,CC1(C)CC(=O)c2sc(NC(=O)c3ccc4ncsc4c3)nc2C1,inactive
7,COC(=O)C1=C(c2ccc(F)cc2OCc2ccccc2)C[C@@H]2CC[C@H]1N2C(=O)NCCNC(C)=O,"inconclusive: 5.86 µM [inhibitor, partial curve, poor fit]"
8,O=C(COc1ncnc2sccc12)Nc1cccc(S(=O)(=O)N2CCCC2)c1,"inconclusive: 11.7 µM [inhibitor, single point]"
9,O=C(CC(SCCO)c1ccc2c(c1)OCO2)c1cccs1 (stereo not given),"inconclusive: 18.5 µM [inhibitor, partial curve, poor fit]"
10,CN(Cc1cccnc1)Cc1cn(C)nc1-c1ccc(Oc2ccccc2)cc1,"inconclusive: 10.4 µM [inhibitor, single point]"
11,COc1ccc2cc3cc(C(=O)NCc4ccccn4)oc3nc2c1,inactive
12,CCc1ccc(/C=C2/SC(=S)N(CCC(=O)Nc3cccc(C(=O)O)c3)C2=O)cc1,"inconclusive: 14.7 µM [inhibitor, single point]"
13,Oc1ccccc1N1CCN(C(=S)Nc2ccc(SC(F)F)cc2)CC1,inactive
14,Cc1cc(C)n2c(SCC(=O)Nc3ccccc3C#N)nnc2n1,"inconclusive: 9.28 µM [inhibitor, single point]"
15,CCOC(=O)c1[nH]cnc1C(=O)Nc1ccccc1C,inactive
16,COc1ccc2oc(=O)c(C(=O)NCCc3ccc(OC)c(OC)c3)cc2c1,inactive
17,CCOc1ccc(S(=O)(=O)N2CCN(C(=O)c3cc(C4CC4)nn3-c3ccccc3)CC2)cc1,"inconclusive: 3.7 µM [inhibitor, full curve]"
18,Cc1cc([N+](=O)[O-])nn1Cc1ccc(C(=O)N/N=C/c2ccc(F)cc2)cc1,inactive
19,Nc1nc(NCCO)nc(NC2CCCCC2)c1[N+](=O)[O-],active: 5.22 µM
20,CCc1ccc(NC(=S)Nc2cc(OC)c(NC(=O)C(C)C)cc2OC)cc1,"inconclusive: 5.22 µM [inhibitor, partial curve]"
21,CC(C)(C)OC(=O)NCCCC[C@H](NC(=O)c1nc[nH]c1C(=O)NC1CCN(C(=O)OC(C)(C)C)CC1)C(=O)OC(C)(C)C,active: 2.33 µM
22,COc1ccc(NC(=O)C2CCN(c3cc(-c4ccccc4)nc4ncnn34)CC2)cc1OC,"inconclusive: 18.5 µM [inhibitor, single point]"

# As entered above:
# Value of O=C(CC(SCCO)c1ccc2c(c1)OCO2)c1cccs1 (stereo not given) under Potency: inconclusive: 18.5 µM [inhibitor, partial curve, poor fit]
# Value of Cc1cc(C)n2c(SCC(=O)Nc3ccccc3C#N)nnc2n1 under Potency: inconclusive: 9.28 µM [inhibitor, single point]
# Value of Cc1cc([N+](=O)[O-])nn1Cc1ccc(C(=O)N/N=C/c2ccc(F)cc2)cc1 under Potency: inactive
# Value of COC(=O)C1=C(c2ccc(F)cc2OCc2ccccc2)C[C@@H]2CC[C@H]1N2C(=O)NCCNC(C)=O under Potency: inconclusive: 5.86 µM [inhibitor, partial curve, poor fit]
# Value of Oc1ccccc1N1CCN(C(=S)Nc2ccc(SC(F)F)cc2)CC1 under Potency: inactive
# Value of CCc1ccc(NC(=S)Nc2cc(OC)c(NC(=O)C(C)C)cc2OC)cc1 under Potency: inconclusive: 5.22 µM [inhibitor, partial curve]
